Here are results for six molecules from PMC11642917.

Protein sequences, listed by entry. Tags and fused reporters are not part of them.
UniProt Q17551: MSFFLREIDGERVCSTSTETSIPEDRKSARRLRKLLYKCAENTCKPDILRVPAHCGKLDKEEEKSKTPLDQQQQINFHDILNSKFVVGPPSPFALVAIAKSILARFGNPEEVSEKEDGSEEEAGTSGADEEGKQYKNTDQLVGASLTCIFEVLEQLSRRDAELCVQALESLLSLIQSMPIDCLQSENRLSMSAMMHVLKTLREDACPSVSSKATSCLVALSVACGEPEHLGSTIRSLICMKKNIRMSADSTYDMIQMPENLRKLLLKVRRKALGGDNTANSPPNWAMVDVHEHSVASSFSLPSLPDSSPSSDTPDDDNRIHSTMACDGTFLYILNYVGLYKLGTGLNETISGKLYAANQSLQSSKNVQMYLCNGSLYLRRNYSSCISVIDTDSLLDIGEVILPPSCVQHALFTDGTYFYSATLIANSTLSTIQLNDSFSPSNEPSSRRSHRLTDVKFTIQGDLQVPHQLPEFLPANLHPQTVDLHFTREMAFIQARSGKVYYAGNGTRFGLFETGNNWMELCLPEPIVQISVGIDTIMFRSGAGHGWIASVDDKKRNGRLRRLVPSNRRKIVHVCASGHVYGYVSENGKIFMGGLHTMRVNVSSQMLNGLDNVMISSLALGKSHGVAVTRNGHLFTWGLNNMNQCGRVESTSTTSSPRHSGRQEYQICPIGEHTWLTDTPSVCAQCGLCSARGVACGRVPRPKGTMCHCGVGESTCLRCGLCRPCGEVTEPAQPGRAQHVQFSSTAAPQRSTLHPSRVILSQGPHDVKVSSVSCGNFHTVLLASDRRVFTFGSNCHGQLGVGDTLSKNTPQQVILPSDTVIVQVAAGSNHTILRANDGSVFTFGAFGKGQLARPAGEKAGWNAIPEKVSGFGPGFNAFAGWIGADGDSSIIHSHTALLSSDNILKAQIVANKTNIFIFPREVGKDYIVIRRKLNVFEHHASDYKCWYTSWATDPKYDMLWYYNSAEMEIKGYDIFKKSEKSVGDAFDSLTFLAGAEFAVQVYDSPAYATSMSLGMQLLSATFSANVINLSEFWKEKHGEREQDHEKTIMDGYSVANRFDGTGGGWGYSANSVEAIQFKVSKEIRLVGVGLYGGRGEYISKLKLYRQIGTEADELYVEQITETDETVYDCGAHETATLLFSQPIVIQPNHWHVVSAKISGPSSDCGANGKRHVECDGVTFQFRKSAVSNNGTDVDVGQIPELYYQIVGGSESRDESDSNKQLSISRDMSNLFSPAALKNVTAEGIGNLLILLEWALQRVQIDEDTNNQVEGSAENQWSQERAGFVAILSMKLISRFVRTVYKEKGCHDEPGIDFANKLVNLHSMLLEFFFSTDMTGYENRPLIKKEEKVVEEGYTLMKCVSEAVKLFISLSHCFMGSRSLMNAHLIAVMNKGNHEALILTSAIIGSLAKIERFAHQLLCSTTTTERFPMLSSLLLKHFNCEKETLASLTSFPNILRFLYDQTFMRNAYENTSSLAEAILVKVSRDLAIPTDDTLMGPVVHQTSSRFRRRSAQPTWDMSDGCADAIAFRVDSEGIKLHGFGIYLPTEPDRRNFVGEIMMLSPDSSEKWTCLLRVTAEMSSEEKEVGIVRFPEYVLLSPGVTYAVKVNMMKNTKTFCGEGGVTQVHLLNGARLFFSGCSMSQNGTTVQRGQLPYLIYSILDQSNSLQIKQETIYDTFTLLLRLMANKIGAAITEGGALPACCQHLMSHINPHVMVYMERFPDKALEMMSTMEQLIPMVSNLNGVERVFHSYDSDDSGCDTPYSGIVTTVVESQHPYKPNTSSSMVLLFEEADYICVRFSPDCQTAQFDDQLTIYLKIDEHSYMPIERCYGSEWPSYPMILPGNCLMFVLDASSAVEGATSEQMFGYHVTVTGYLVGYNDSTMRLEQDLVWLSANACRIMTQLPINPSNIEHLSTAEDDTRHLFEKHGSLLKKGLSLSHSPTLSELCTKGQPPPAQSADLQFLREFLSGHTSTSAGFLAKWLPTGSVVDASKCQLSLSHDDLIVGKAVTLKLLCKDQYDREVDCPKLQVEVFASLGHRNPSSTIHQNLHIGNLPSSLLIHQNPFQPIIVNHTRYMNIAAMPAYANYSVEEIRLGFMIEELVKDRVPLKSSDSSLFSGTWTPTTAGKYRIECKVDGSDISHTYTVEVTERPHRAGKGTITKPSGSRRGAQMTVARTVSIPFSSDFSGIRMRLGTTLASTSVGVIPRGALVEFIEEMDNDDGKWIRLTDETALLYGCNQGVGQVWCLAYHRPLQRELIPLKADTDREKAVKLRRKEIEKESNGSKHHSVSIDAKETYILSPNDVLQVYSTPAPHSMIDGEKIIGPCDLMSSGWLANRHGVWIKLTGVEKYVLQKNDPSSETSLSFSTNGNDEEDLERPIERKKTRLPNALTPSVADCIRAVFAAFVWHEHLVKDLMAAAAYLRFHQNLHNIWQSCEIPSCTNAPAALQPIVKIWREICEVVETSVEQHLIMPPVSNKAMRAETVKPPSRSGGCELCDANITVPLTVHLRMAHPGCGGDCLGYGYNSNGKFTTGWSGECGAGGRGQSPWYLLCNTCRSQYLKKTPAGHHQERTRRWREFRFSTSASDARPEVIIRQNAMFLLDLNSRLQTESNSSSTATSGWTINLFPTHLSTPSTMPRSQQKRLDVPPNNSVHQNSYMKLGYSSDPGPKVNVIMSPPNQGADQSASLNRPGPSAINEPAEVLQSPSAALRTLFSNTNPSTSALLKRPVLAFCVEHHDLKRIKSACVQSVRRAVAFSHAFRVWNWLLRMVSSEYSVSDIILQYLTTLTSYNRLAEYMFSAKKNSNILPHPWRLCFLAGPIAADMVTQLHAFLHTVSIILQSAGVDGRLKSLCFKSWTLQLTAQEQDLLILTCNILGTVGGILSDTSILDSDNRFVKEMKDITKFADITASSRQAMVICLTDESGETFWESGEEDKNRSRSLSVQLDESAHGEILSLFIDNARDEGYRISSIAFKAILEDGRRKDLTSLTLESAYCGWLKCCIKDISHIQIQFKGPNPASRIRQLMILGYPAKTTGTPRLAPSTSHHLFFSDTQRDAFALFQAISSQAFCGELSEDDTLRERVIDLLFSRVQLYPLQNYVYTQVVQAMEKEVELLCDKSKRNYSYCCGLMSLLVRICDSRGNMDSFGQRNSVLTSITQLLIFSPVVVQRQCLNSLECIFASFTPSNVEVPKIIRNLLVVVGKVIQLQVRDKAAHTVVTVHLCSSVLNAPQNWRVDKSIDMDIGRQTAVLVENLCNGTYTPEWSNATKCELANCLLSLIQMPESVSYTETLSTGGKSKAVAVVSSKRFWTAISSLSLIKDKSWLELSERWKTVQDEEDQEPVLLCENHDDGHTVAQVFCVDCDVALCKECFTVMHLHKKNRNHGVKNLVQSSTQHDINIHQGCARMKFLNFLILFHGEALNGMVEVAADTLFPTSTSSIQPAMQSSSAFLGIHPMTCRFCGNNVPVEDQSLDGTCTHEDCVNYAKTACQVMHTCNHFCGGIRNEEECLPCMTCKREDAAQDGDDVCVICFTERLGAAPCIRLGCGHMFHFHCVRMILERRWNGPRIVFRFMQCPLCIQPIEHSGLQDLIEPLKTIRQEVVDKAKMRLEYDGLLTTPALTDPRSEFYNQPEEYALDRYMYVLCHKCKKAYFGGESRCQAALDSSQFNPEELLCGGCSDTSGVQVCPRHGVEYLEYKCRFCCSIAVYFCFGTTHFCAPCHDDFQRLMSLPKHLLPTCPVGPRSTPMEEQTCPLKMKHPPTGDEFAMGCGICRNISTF

These are yes or no findings as the source states them, for the method shown. In cells and extracts the contact can be indirect. A yes stands for co-enrichment or nearness to the bait. Other partners may have been found.

One test addresses GS::RPM-1 (C. elegans) (UniProt Q17551). Put plainly: affinity purification with mass spectrometry; GS-tagged RPM-1 bait captured on IgG-coupled Dynabeads from whole-animal lysates of mixed-stage C. elegans (80 mg total protein, 500 uL beads, 4°C, 4 hours; various detergent conditions); SDS-PAGE, in-gel trypsin digest, LC-MS/MS; GS::GFP negative control; 7 independent experiments; hit = 1.5x or greater total spectra over GS::GFP.

Test [1] concerns the target GS::RPM-1 ligase-dead (LD) (C. elegans) (UniProt Q17551). The description is as above.

B1: FSN-1 (protein, UniProt Q18223 1-332)
chain: MAENDGETIVPDEQCNLTASTPMKSSGLEQVESPKERKTSMVECDDEGNPSSGTPDESPKQLTPHSIPPRRRRSPRRPEVSASRLPLKVLNQIFQYLPLKDLRSAMLTCHSWNNALSMEDSDIWQYLLGKKLPEAAVSDPFLLAELGSAKKKLRAWYFAWNTSDISRNNYIRTNGFTVHRQPVAQSTDGVRGKRGISKGVHAFDITWDGPLGTVAVVGIATKHAALHCVGYVALLGSDDQSWGWNLVDNVLMHNGAQLGVYPKMNNPPKYEVGDKIRLIIDCDTHVAYFERNSEFLGIAFNHIPPLRLYPAVCAVYGNTEVTMVYVGSPQMG
Consider B1, for which the binding result (with GS::RPM-1 (C. elegans); in test [1]) was “binds” throughout.

B2: UNC-51 (protein, UniProt Q23023 1-856)
chain: MEQFDGFEYSKRDLLGHGAFAIVYRGRYVDRTDVPVAIKAIAKKNISKSKNLLTKEIKILKELSSLKHENLVGLLKCTETPTHVYLVMEFCNGGDLADYLQQKTTLNEDTIQHFVVQIAHALEAINKKGIVHRDLKPQNILLCNNSRTQNPHFTDIVIKLADFGFARFLNDGVMAATLCGSPMYMAPEVIMSMQYDAKADLWSIGTILFQCLTGKAPFVAQTPPQLKAYYEKTRELRPNIPEWCSPNLRDLLLRLLKRNAKDRISFEDFFNHPFLTSPLLPSPSKRILESARSPLLANRRIITPQSSLPVPKRAGSTKLDSPTPVRRIGESPRVQRRVITPGMPSPVPGAPMQESTDFTFLPPRQESSPVKQVQVHTNVSPSLTTCKPVPVPSQRLTYQKMEERLAAARKTAVPSSSSPTGSAVSAQHQHQHQQQQEPASSPVVQRIERPDQLPRRTTLQDPNAHDIERMTMPNPTFVVCGSSTKPSPNNANRVRRSTITSPADTQDMVAADQMLSNLDPTTTTTTIPKSATTANIQGIPRGARDRSVTSPPQPTIHENEPLDNAKYQQTDVNNSPTAPTEPFIIKNQTTCSTSSTSSSVVEEEEAMSLPFASGSHLAAGFKKTPAEVPMDHGALPPALDQEIVLGEEHKQILAKLRFVAELVDTLIHVAEQKDNPLASAMASRRQLLTTGTSTTNTSSPYRRAEQLVVYVRALHMLSSALLLAQTNVANRVLHPSVAVQQVLNQLNDKYHQCLVRSQELASLGLPGQDPAMAVISAERIMYRHAIELCQAAALDELFGNPQLCSQRYQTAYMMLHTLAEQVNCDQDKTVLTRYKVAVEKRLRILERQGFVAAVNT
On to B2, for which, in test [1], the binding entry is recorded as “binds”.

B3: RAE-1 (protein, UniProt Q93454 1-373)
chain: MFGSSGFGNKSMFGGSNISTSTTTPAANTTQNDDFLVDGAPEDTIQVIKFSPTPQDKPMLACGSWDGTIRVWMFNDANTFEGKAQQNIPAPILDIAWIEDSSKIFIACADKEARLWDLASNQVAVVGTHDGPVKTCHWINGNNYQCLMTGSFDKTLRFWDMKNLPNQTQMAQIQLPERVYAADVLYPMAVVALANKHIKVYNLENGPTEVKDIESQLKFQIRCISIFKDKSNQNPAGFALGSIEGRVAVQYVDVANPKDNFTFKCHRSAELVNGFQEIYAVNDICFHPQHGTLVTIGSDGRYSMWDKDARTKLKTSEPHPMPLTCCDVHSSGAFLVYALGYDWSRGHEGNTQPGSKIVIHKCIEDMKPRPTKK
As for B3, the binding result (with GS::RPM-1 (C. elegans); in test [1]) was “binds” in each case.

B4: PPM-2 (protein, UniProt P49596 1-356)
chain: MGQTLSEPVTKKESASCANENYLVGSSCMQGWRVDMEDAHTHLLSLPDDPKCAFFAVYDGHGGSKVSQYSGINLHKKVVAQKEFSEGNMKEAIEKGFLELDQQMRVDEETKDDVSGTTAVVVLIKEGDVYCGNAGDSRAVSSVVGEARPLSFDHKPSHETEARRIIAAGGWVEFNRVNGNLALSRALGDFAFKNCDTKPAEEQIVTAFPDVITDKLTPDHEFIVLACDGIWDVMTNQEVVDFVREKLAEKRDPQSICEELLTRCLAPDCQMGGLGCDNMTVVLVGLLHGQSPDTLFTKCARPAVFTGVNNEDGDQNQIQQDISRVINNFDGEQRVNAANQEEEEDDNEPAPANFQV
Turning to B4, the binding result (with GS::RPM-1 (C. elegans); in test [1]) was “binds” in each case.

B5: GLO-4 (protein, UniProt Q5DX34 1-1386)
chain: MFFKRSTNSRKTSANSSSDTSTSSESLLLPLLNNTKAGARSQKGSVHRQSGKKARRKMMENPYVCSLELDELSADDSIIDYSVFSDDSFLLILLLTSKGDVQAYLETSRDTKPRKNVVNIKTACSLNVSPVTVCIGSQAAFAIFGLADGNLLVTPIRLLIDVTWGGSSWATTTVIDLSLPTVDPCLATPTCTKCFVSNFPPCTMAVVANKAGNILLVDLHLRKCVSELKAPQSLHQIDILLDENSIELLVTGFTGAQWIIPIERSGKGFREVLTTCVPSDLTVLEPATMQFFAADSCGVVALDTTESIVEVYNTFHSLAHSSKRTFKVPPETWMVHAGDNMLFTVSNDNEIRSALHFGFMSSRLEYTLVRTSTNWRPLGIVAMPSRPHKLAGIFVVNERGLVRVEQSTALNLTKIASEFFFRLSPLQLNSKSVAQVANACRIDTAEFQSALIPNLLSTRKNRQLTNKELSQIYSIAKAINLSMSDLLKAFENESIGEQLLPEVLNTIQTNPAKHDNLMQRVVEMFVKRSLSAEGNMDKIREYDAELSNFLARHEHLHKGSVDCAKAGMWKCTQTLVRRDVHETKSIDTSTEVLLYIIKNRLQIWNEANSTDRLQIMSLVCHLDWSKLADADGARVCAILSAWQRDISLPSYHEMCLRIAITNSDRFPRPCQILSLVSSIHILSEKKISNHANLPNFLPLAGGNNCGATITEDDRLMIWGNFTNAQQRMEMPQMNAKSKRSDSVTNGAPTLPPPAPKPEQHLPRVLEYPGGRPRAIACGAEHILVLSSSGQLSAWGGNRFGQCGVGHSFRIANLHQVDGDWPAIEKIACGQFHSAFICSDGSLWTFGWGVWGQLGHGGRNNSNQLVPTRVNGLICKVTQIACGRAHTVVLTDTGRVLVCGSGSYGQMGVDDDIKKVFAFTPLPLGPLRVRDIATHYYHSICITEDNRVFEWGRNPQELKMRMFVMKKIRSAQLKNTEDPSSPSPSTNGSTPRVNLNLPAEIPREDLGLREVKHFLDGNIVSVACGLSHSALITSEGTLYTWGKGLDYQLGHGNKNERMEPHQVFEPNGAKWVNVSLGNNHTIASTDDGSVFAWGKNDFGQCGVLTKKNGNSADVTKKFFFQARDGRRFMPNVDESQFVQKPGLIPDVRVRNLNEDGNEGVDKEEIVDRLKASDVNVVQAVSKHLYSPIEGKCNGSIIEDEPRNGKIQKQNKYDGEDGPLCTTTALVHLIAGDVKRAIRMIEWLKTDSSTCEKSLMVLSSLVWEVMANHEDVQSREALSAAFRHVPMSDSMRKGKQIAQLWPAVWNDERVQSSLSIDEKIAMLDGFTSASKPVSCPTIPSSSLEVSSKIRVYAQCAHAEPAAVGSPPECSTCLDEWTEKVRHTLGTQL
Consider B5, for which the binding entry (in the test with GS::RPM-1 (C. elegans); in test [1]) was “binds” in each case.

B6: UNC-112 (protein, UniProt Q18685 1-720)
chain: MAHLVEGTSIIDGKWQLPILVTDLNIQRSISVLGNLNVGGLMLELVSECDVERDWSDHALWWPEKRRWLQHTRSTLDQNGITAETQLEFTPMHKEARIQLPDMQMIDARVDFSVNSFKATKKLCRDLGIRYSEELSLKRYIPPEDLRRGTSDADNMNGPLSMRPGEESVGPMTLRKAAPIFASQSNLDMRRRGQSPALSQSGHIFNAHEMGTLPRHGTLPRGVSPSPGAYNDTMRRTPIMPSISFSEGLENEQFDDALIHSPRLAPSRDTPVFRPQNYVEKAAINRGWLDSSRSLMEQGIFEGDIILLRFKFMNFFDLNPKYDPVRINQLYEQAKWSILLDEFDHTEEEATLFAALQLQATLQRDSPEPEENNKDDVDILLDELEQNLDAAALNRRSDLTQVPELADYLKYMKPKKLAAFKGFKRAFFSFRDLYLSYHQSSSDVNSAPLGHFSLKGCEVSQDVSVGQQKYHIKLLLPTAEGMIDFILKCDSEHQYARWMAACRLASRGKSMADSSYQQEVESIKNLLKMQSGNGNENGNSNTASRKAAAVKLPNDFNVDEYISSKYVRRARSKQQIQQRVSDAHGNVRQLTATEAKLQYIRAWQALPEHGIHYFIVRFRNARKAELVAVAVNRLAKLNMDNGESLKTWRFANMKKWHVNWEIRHLKIQFEDEDIEFKPLSADCKVVHEFIGGYIFLSMRSKEHSQNLDEELFHKLTGGWA
As to B6, the binding entry (with GS::RPM-1 (C. elegans); in test [1]) was “binds” throughout.
